From the supplement of paper PMC12578635
The list shows a part of the results. Rule as the data show it: active = 150% or more and inactive = the rest. Single values are uncertain, as repeats are few or missing.

The compounds below were run on Staphylococcus aureus JE2-lux inside RAW 264.7 macrophages (assay: intracellular bacterial bioluminescence relative to DMSO vehicle; higher = higher intracellular bacterial metabolic activity). Details: 10 µM; treatment time 4 h; gentamicin 50 µg/ml.

Intracellular bacterial bioluminescence, inactive:
COC(=O)c1ccccc1NC(=O)CSc1nccnc1N1CCSCC1 22.8%, Cc1ccc(C)c(S(=O)(=O)Nc2ccc3nnc(C)n3n2)c1 112%, Cc1ccc2[nH]c3nc(SCC(=O)Nc4ccc(S(=O)(=O)NC5CC5)cc4)nnc3c2c1 122%, CC(=O)Nc1ccc(S(=O)(=O)N2CCN=C2SCc2cccc(F)c2)cc1 114%, Cc1c(C)n(-c2ccc(F)c(F)c2)c2ncnc(NCc3ccc(F)cc3Cl)c12 89.3%, CCc1ccc(-c2noc3c(=O)n(CCC(=O)Nc4cc(C)ccc4C)cnc23)cc1 63.1%, O=C(NC1CCS(=O)(=O)C1)c1cc2n(n1)CCCN(Cc1ccc(F)cc1)C2=O (stereo not given) 104%, COc1cccc(NC(=O)N2CCC(C(=O)NCC3CCCCC3)CC2)c1 111%, COc1cccc(OC)c1C(=O)Nc1nc2c(C)c(C)ccc2s1 99.2%, CCOC(=O)c1cc([N+](=O)[O-])sc1NC(=O)c1ccc(S(=O)(=O)N2CC(C)CC(C)C2)cc1 (stereo not given) 89.5%, Cc1cccc(NC(=O)c2nn(C)c3c2COc2ccccc2-3)n1 85.4%, Cn1c(NC(=O)C2CCCC2)cc(=O)n(C)c1=O 126%, COc1ccc(-c2nsc(SCC(=O)NCc3ccco3)n2)cc1 78.3%, CCS(=O)(=O)Nc1ccc(C2=NN(C(C)=O)C(c3ccc(Cl)o3)C2)cc1 (stereo not given) 97.3%, CCC(C)Sc1nc2c(c(=O)[nH]1)C(c1ccccc1)C1=C(CCCC1=O)N2 (stereo not given) 102%, CCOc1ccc2ccccc2c1C(=O)NCc1n[nH]c(=O)c2ccccc12 96.1%, CCCn1c(=O)c(=O)[nH]c2cc(-c3noc(CCNS(=O)(=O)c4ccc(C)cc4)n3)ccc21 88.6%, Cc1nnc(N2CCC(C(=O)O)CC2)c2nn(-c3ccccc3)c(C)c12 111%, Cc1onc(-c2ccncc2)c1C(=O)N1CCn2c(C)ccc2C1C(C)C (stereo not given) 140%, O=C(NCc1ccc2c(c1)OCO2)c1cnc2ccc(F)cc2c1O 118%, CC(C)(C)c1ncc(C(=O)NC(c2ccccc2)c2cccnc2)cn1 (stereo not given) 111%, COc1ccc2c(c1OC)C(=O)OC2Nc1ccc(CC(=O)O)cc1 (stereo not given) 119%, Cc1cnc(C(=O)Nc2ccc(C(=O)NC3CC3)cc2)cn1 110%, CC(NC(=O)c1ccc2c(=O)[nH]c3c(-c4cccc(C(F)(F)F)c4)nnn3c2c1)c1ccc(F)cc1 (stereo not given) 109%, COc1cccc(NC(=O)N2CCCC(C(=O)NC3CCCCC3C)C2)c1 (stereo not given) 113%, Cc1ccc([N+](=O)[O-])c(OCCSc2nnc3sc4ccccc4n23)c1 96.4%, CCOc1ccc2c(c1)SC(CC(=O)Nc1sc(C)cc1C(=O)OC)C(=O)N2 (stereo not given) 72.6%, CCn1cc(SCC(=O)NCc2ccccc2)c2ccccc21 91.8%, CCOc1ccc2ccccc2c1C(=O)Nc1c2c(nn1-c1ccc(F)cc1)CS(=O)C2 (stereo not given) 85%, COc1ccc(OC)c(CNC(=O)Cn2cccc2-c2nc(-c3ccc(C)cc3)cs2)c1 89.8%, Oc1cccc(C2=NN3C(C2)c2cc(Cl)ccc2OC3c2cccnc2)c1 (stereo not given) 122%, C=CCn1c(=N)c(C(=O)NCCCOC)cc2c(=O)n3cc(C)ccc3nc21 111%, COc1cc(C2NC(=O)NC3=C2C(=O)N(Cc2ccc(F)cc2)C3)cc(OC)c1OC (stereo not given) 92.8%, Cc1ccc(-c2cnc3ccccc3n2)cc1NC(=O)CN1CC(C)OC(C)C1 (stereo not given) 103%, Cc1nc(SCC(=O)c2ccc3c(c2)OCCO3)c2c3c(sc2n1)CCC3 108%, COc1cc(NC(=O)Nc2c(-c3cccnc3)[nH]c3ccc(Cl)cc23)cc(OC)c1 117%, CC1CCN(CC(O)Cn2c3ccccc3c3ccccc32)CC1 (stereo not given) 101%, O=C1CC(c2ccccc2)=NN1c1ccc2ccccc2c1 92.5%, O=C(NC1CCN(C(=O)CNCc2ccc3c(c2)OCO3)CC1)c1ccccc1F 105%, N=C1NC(=O)C(CC(=O)Nc2ccc(N3CCOCC3)cc2)S1 (stereo not given) 97.8%, CC(=O)N1N=C(c2ccc(NS(C)(=O)=O)cc2)CC1c1ccc2c(c1)OCO2 (stereo not given) 95.3%, CCOc1cccc2sc(NNC(=O)c3ccccc3)nc12 65.7%, N#C/C(C(=O)NCCc1ccccc1)=C1/N=C(NC(=O)c2cccs2)c2ccccc21 112%, O=C(NC1CCCCC1)NC1(C(=O)Nc2ccc3c(c2)OCCO3)CCCCC1 137%, COc1cccc(NC(=S)NCCCNc2nc3c(C)cc(C)cc3cc2C#N)c1 90.5%, O=C(N/N=C/c1cc([N+](=O)[O-])ccc1O)c1ccc([N+](=O)[O-])cc1 107%, C=C(C)Cn1c(SCCN2CCOCC2)nc2c1c(=O)[nH]c(=O)n2C 138%, CCc1cnc2c(c1OC)c(=O)n(CC(=O)NCc1ccccc1)c(=O)n2C 105%, Cc1cc(C)cc(/N=c2\oc3c(C)ncc(CO)c3cc2C(N)=O)c1 128%, NC1=NN(c2ccccc2)C(=O)/C1=N/Nc1ccc(-c2ccccc2)cc1 86.9%, O=C(NCc1cccnc1)C(=O)NCC(c1ccco1)N1CCN(c2ccc(F)cc2)CC1 (stereo not given) 76.9%, CC(C)(C)n1nc2c(c1NC(=O)c1ccc(Br)cc1)CS(=O)C2 (stereo not given) 118%, O=C(NCc1cccs1)C1CCCN(C(=O)Nc2ccc(F)cc2)C1 (stereo not given) 85.9%, O=C(Nc1nc2c(s1)CCc1ccccc1-2)C1CC1 97.1%, Clc1ccc(CSc2nnc3ccc(-c4ccncc4)nn23)cc1 68.3%, Cc1sc2c(c1C)c(=O)nc1scc(CC(=O)O)n12 87.7%, O=C(CSc1ncnc2c1sc1nc3ccccc3cc12)N1CCOCC1 98.6%, Cc1cccc(NC(=O)Cn2cc(S(=O)(=O)Cc3ccccc3F)c3ccccc32)n1 116%, COC(=O)c1ccc(CSc2nncc(=O)n2N)o1 90%, COc1cccc2cc(C(=O)Nc3cccc(NC(=O)c4ccccn4)c3)c(=O)oc12 93.2%, Cc1ccccc1C(NC(=O)c1cc2c([nH]c1=O)CCCCC2)c1ccncc1 (stereo not given) 51.3%, CCSc1ccccc1C(=O)N1CCN(c2nc3c(OC)ccc(C)c3s2)CC1 79%, Cc1ccc(S(=O)(=O)c2cnc(SCC(=O)Nc3ccccc3)[nH]c2=O)cc1C 94.3%, CN(C)S(=O)(=O)c1ccc(C(=O)Nc2sc3c(c2-c2nc4ccccc4s2)CCCC3)cc1 102%, CCOc1cc(C(=O)NCC(=O)N/N=C/c2ccccc2)cc(OCC)c1OCC 107%, Cc1cccc2cc(C#N)c(NCCNS(=O)(=O)c3cccc(Cl)c3)nc12 117%, Cc1c(S(=O)(=O)c2ccccc2)nnn1-c1ccccc1 110%, S=C(Nc1ccccc1Cl)NC1CC2CCC(C1)N2Cc1ccccc1 (stereo not given) 83.5%, Cc1nn(S(=O)(=O)c2ccccc2[N+](=O)[O-])c(C)c1Sc1ccccc1 14.8%, O=C(CC1C(=O)Nc2ccccc2N1C(=O)c1cccs1)Nc1ccc(Cl)c(Cl)c1 (stereo not given) 55.5%, O=C1CCc2cc(S(=O)(=O)NCC(c3ccc(F)cc3)N3CCCC3)ccc2N1 (stereo not given) 101%, O=C(Nc1ccccc1F)c1ccnc(N2CCC(C(=O)NCc3ccc(F)cc3)CC2)c1 55.2%, CCCCOc1ccc(-c2cc3c(N4CCC(C(=O)N5CCCC5)CC4)nccn3n2)cc1 110%, CCc1ccccc1NC(=O)CN1N=NC2C(=O)N(c3ccc(F)c(F)c3)C(=O)C21 (stereo not given) 116%, CCOC(=O)c1ccc(NC(=O)CSc2ncnc3c2nnn3Cc2ccccc2)cc1 58%, COc1ccc(NC(=O)c2ccc(Cn3c(=O)[nH]c4ccsc4c3=O)cc2)cc1 26.2%, O=C(Nc1ccccn1)c1cccn2c(-c3ccccc3F)nnc12 95.3%, COc1cccc2sc(N(CCCn3ccnc3)C(=O)c3ccc4c(c3)OCCO4)nc12 66.3%, COc1cccc(NC(=O)CSc2nnc(Cc3ccc(Cl)cc3)c(=O)[nH]2)c1 138%, CC1CCc2c(sc3ncn4c(=O)n(CCC(N)=O)nc4c23)C1 (stereo not given) 99.2%, Cc1cc(C)n(Cc2c(C(=O)NCc3c(C)nn(C)c3C)noc2C)n1 117%, Cc1cc(-c2csc(S(=O)(=O)N3CCN(CCOc4ccc(Cl)cc4)CC3)c2)on1 45.6%, Cn1c(=O)c2c(nc3n2CC(COc2ccc(Cl)cc2)O3)n(C)c1=O (stereo not given) 55.3%, CC(C)c1csc(-c2csc(S(=O)(=O)NC3CCCCC3)c2)n1 15.5%, CC(=O)Nc1cccnc1-c1ccc(C(=O)NC2CCCc3ccccc32)cc1 (stereo not given) 92.7%, CCN(c1ccccc1)S(=O)(=O)c1ccc2[nH]c(=O)[nH]c2c1 103%, CCOC(=O)c1sc(NC(=O)CSc2nc3sc(C(C)=O)c(C)c3c(=O)[nH]2)nc1C 94.4%, NC(=O)c1ccccc1NC(=O)c1ccc2nncn2c1 103%, Cc1nn(C)c(C)c1CNC(=O)c1cc(-c2ccccn2)nc2ccccc12 85.9%, O=C1NC(=O)/C(=C/c2ccc(C(=O)Nc3ccc(C(=O)O)cc3)cc2)S1 89%
